According to paper PMC10182654, “The pattern of histone H3 epigenetic posttranslational modifications is regulated by the VRK1 chromatin kinase” (Epigenetics & Chromatin, 2023):
These are yes or no findings as the source states them, for the method shown. Binding seen in cells or lysates may run through a third protein. Some binding calls cover weakened binding; strength is not graded here. For some of these results: Where a sequence is shown, tags or fusion partners need not be part of it.

Sequences of proteins named here, by UniProt entry; tags and fusion partners are left off.
UniProt Q13547: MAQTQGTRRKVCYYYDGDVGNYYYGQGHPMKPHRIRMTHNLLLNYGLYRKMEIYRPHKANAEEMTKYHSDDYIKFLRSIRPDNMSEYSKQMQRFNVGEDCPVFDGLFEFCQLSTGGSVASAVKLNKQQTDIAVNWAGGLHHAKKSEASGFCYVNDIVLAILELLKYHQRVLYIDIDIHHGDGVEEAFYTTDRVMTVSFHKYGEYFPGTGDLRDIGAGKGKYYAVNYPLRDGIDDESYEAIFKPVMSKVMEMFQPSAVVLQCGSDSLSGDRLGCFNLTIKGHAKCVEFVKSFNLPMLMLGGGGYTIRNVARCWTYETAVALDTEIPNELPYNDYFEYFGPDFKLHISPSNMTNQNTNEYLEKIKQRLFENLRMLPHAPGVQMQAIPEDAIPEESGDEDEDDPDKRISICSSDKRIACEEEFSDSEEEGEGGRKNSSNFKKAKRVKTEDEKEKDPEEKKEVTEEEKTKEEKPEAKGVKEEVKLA
UniProt Q92831: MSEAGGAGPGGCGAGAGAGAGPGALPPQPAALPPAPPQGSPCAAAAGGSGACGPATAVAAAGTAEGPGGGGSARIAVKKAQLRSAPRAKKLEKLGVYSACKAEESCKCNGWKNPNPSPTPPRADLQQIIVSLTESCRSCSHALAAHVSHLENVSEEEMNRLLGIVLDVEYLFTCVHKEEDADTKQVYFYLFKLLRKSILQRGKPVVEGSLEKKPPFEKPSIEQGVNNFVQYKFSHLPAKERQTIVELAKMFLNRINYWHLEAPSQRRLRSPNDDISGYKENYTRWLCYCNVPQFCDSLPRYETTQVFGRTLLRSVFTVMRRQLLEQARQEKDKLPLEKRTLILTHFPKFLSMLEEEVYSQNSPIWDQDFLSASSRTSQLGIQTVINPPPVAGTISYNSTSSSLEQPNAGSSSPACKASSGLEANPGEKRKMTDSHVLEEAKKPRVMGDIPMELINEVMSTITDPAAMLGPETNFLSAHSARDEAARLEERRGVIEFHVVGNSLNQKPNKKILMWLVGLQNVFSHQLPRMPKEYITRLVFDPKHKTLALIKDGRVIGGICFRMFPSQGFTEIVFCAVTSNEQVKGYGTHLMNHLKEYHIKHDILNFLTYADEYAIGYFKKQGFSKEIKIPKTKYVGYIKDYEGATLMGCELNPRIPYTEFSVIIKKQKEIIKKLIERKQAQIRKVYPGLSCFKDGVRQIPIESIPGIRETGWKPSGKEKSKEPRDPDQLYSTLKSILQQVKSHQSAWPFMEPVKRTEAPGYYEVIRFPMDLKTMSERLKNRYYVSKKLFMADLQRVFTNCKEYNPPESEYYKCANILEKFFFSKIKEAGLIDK

T1: endogenous VRK1 (human (endogenous in HEK293T)) (UniProt Q99986)
T1 sequence: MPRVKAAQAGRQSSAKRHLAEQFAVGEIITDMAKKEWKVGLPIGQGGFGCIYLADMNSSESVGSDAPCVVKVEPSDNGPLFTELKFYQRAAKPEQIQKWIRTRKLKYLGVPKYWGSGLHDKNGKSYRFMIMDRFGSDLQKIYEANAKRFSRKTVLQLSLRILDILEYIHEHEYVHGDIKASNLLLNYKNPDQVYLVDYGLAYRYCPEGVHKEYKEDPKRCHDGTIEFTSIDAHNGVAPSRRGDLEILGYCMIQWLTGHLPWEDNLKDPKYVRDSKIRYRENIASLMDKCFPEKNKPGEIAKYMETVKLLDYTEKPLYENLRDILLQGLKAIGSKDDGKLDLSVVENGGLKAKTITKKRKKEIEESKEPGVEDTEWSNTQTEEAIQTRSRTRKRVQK

T2: VRK1-HA (human) (UniProt Q99986)
T2 sequence: T1 sequence

T3: KDM3A (JMJD1A)-V5 (human) (UniProt Q9Y4C1)
T3 sequence: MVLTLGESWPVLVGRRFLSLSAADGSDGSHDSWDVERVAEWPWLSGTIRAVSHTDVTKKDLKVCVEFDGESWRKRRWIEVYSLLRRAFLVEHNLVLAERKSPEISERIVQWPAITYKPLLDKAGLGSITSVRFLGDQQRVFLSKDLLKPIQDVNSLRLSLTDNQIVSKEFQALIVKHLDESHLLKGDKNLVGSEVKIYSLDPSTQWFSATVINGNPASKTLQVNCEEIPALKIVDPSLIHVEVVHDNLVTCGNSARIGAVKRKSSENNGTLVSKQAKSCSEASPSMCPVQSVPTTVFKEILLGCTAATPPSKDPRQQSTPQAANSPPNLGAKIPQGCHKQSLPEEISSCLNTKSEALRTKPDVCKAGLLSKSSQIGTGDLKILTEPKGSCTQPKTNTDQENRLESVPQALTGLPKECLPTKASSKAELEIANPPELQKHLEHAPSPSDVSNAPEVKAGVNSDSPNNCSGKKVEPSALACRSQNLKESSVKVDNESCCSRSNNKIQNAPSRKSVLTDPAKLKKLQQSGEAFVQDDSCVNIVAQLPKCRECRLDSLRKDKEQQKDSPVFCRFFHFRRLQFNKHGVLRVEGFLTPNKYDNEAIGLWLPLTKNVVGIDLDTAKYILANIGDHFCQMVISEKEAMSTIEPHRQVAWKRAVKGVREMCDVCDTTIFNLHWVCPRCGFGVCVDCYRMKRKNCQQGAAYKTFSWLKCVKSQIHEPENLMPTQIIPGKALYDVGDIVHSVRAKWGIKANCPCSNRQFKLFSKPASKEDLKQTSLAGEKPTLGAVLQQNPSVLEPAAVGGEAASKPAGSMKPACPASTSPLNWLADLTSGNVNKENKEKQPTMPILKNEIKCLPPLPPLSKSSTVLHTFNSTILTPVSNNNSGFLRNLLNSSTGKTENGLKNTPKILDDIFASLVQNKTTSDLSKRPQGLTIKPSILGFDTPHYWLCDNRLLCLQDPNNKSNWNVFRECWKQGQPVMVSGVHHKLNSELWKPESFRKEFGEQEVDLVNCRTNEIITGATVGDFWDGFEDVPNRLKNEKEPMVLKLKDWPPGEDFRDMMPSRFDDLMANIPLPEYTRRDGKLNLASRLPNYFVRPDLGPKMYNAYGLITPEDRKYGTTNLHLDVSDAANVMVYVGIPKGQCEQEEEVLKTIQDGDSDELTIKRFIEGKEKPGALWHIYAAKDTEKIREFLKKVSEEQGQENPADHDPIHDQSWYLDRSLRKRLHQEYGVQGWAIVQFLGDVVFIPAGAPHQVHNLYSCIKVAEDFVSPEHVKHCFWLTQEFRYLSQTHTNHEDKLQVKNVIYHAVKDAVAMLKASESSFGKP

T4: KDM4A (JMJD2A)-HA (human) (UniProt O75164)
T4 sequence: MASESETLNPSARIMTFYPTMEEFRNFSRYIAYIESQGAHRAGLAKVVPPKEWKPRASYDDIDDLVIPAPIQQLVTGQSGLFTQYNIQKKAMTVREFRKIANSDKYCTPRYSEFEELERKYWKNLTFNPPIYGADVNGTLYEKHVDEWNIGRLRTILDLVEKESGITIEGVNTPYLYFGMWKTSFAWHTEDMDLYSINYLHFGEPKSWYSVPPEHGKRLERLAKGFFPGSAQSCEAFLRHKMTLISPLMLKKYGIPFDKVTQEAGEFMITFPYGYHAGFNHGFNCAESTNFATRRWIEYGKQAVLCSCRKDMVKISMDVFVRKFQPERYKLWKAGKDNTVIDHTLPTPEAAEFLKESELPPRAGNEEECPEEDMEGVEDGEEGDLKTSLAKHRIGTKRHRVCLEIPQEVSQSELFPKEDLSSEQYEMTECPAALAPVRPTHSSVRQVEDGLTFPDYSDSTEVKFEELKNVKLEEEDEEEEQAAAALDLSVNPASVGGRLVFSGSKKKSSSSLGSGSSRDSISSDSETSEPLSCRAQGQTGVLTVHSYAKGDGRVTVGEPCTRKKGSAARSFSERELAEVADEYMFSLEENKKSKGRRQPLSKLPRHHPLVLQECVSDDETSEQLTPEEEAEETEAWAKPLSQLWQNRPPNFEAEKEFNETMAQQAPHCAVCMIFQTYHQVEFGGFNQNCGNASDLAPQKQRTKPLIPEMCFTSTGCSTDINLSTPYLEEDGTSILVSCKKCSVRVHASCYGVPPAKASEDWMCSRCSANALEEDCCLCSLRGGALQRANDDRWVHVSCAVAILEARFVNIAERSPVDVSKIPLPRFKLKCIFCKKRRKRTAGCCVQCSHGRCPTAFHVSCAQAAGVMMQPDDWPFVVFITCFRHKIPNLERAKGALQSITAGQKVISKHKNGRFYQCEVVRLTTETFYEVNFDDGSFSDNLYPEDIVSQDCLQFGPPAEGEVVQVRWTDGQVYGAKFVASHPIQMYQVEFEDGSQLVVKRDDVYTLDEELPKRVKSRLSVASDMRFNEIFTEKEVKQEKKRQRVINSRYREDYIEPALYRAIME

B1: endogenous VRK1 (enzyme, UniProt Q99986 1-396)
chain: T1 sequence
B2: KDM4A (JMJD2A)-HA (enzyme, UniProt O75164 1-1064)
chain: T4 sequence
B3: KDM3A (JMJD1A)-V5 (enzyme, UniProt Q9Y4C1 1-1321)
chain: T3 sequence

Tests used:
Experiment in all cases: co-IP; 0.5–1 mg whole-cell extracts of transfected HEK293T cells; specific antibody 6–8 h at 4, then Protein G–Agarose overnight at 4 °C; immunoblot; increasing amounts of transfected plasmid in some panels
[1] = target: T1, endogenous VRK1 (human (endogenous in HEK293T))
VRK1-HA (human) = target: T2, VRK1-HA (human)
HDAC1-Flag (human) = HDAC1-Flag (human) (UniProt Q13547)
[2] = target: T3, KDM3A (JMJD1A)-V5 (human)
[3] = target: T4, KDM4A (JMJD2A)-HA (human)
PCAF-Flag (human) = PCAF-Flag (human) (UniProt Q92831)

Molecule	binding [1]	binding (VRK1-HA (human))	other results
HDAC1-Flag (from UniProt Q13547 1-482) (enzyme)	binds		
PCAF-Flag (from UniProt Q92831 1-832) (enzyme)		binds	
B1			binding (HDAC1-Flag (human)): binds; binding [2]: binds; binding [3]: binds; binding (PCAF-Flag (human)): binds
B2	binds	binds	
B3	binds	binds	
